Consider one substance from article PMC10761706.

Amino acid sequences for entries named in this document (tags omitted). Residues count along the entry.
UniProt P37173, residues 23-567: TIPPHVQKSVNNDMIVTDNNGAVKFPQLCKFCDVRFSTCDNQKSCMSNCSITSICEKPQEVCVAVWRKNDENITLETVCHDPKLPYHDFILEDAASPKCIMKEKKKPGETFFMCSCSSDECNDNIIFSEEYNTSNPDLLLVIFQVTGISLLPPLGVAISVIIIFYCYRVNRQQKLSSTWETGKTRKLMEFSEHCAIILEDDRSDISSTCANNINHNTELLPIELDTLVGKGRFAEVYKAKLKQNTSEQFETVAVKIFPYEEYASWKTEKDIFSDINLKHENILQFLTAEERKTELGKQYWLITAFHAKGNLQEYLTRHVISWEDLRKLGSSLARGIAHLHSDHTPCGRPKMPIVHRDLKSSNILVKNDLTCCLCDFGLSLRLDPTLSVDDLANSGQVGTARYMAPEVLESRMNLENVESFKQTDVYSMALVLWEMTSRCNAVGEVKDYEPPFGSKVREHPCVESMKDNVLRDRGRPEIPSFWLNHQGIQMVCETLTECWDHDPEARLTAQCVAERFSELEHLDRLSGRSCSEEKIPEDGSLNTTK
UniProt Q13705, residues 19-512: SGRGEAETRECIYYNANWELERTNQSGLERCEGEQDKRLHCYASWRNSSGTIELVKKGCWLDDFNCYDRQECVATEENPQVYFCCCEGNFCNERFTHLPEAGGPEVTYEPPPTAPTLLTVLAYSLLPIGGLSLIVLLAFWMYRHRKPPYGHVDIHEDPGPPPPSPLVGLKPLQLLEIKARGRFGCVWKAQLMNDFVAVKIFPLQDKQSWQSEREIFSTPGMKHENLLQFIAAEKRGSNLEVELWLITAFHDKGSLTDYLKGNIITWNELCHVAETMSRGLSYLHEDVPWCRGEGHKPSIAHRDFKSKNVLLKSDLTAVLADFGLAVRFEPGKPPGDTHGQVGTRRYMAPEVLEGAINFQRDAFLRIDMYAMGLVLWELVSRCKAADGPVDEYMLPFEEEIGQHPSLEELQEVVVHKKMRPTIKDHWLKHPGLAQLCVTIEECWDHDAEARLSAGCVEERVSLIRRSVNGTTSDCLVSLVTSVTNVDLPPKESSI

This assay has as its target HA-TβRII (type II TGF-β receptor) (human) (UniProt P37173). Description: patch/FRAP; live AML12 cells coexpressing the two epitope-tagged receptors; HA-TβRII patched and immobilised by a double layer of IgG (rabbit αHA IgG, Alexa 488-GαR IgG), Rf and D of the myc-tagged receptor (labelled by monovalent Fab') measured by FRAP at 15 °C in HBSS/HEPES/BSA; cells untreated, cholesterol-enriched (cholesterol-MβCD, 16 h) or with siRNA to endogenous TGFBR1; without or with 100 pM TGF-β1.

No constants are given. Whether binding was seen depends on the method and setting.

“myc-ACVR2B (activin type II receptor) (from UniProt Q13705 19-512)”: the binding result was “no binding”.
